Source: the supplement of paper PMC10849652
This is one part of the list.

Chains of the proteins cited; added tags and fusions are not shown. Lines headed by an entry give the natural chain unless they say otherwise; changes in a name come on top.
UniProt I6L899: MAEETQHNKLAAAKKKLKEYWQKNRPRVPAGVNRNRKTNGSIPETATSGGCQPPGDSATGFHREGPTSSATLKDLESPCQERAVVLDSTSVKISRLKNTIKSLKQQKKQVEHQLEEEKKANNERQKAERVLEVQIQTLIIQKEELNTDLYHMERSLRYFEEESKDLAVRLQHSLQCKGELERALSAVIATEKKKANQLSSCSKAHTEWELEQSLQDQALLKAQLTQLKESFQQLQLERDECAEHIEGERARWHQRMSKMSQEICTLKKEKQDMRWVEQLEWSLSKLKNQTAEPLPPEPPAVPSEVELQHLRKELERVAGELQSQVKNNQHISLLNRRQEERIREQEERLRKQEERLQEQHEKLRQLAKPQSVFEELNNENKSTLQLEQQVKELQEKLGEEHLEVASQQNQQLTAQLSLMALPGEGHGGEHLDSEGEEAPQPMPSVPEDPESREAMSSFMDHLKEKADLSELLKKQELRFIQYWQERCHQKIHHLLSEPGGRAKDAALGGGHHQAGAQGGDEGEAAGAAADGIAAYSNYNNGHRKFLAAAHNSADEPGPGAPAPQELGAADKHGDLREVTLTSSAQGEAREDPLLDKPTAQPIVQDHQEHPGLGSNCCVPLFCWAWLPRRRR
UniProt P80108: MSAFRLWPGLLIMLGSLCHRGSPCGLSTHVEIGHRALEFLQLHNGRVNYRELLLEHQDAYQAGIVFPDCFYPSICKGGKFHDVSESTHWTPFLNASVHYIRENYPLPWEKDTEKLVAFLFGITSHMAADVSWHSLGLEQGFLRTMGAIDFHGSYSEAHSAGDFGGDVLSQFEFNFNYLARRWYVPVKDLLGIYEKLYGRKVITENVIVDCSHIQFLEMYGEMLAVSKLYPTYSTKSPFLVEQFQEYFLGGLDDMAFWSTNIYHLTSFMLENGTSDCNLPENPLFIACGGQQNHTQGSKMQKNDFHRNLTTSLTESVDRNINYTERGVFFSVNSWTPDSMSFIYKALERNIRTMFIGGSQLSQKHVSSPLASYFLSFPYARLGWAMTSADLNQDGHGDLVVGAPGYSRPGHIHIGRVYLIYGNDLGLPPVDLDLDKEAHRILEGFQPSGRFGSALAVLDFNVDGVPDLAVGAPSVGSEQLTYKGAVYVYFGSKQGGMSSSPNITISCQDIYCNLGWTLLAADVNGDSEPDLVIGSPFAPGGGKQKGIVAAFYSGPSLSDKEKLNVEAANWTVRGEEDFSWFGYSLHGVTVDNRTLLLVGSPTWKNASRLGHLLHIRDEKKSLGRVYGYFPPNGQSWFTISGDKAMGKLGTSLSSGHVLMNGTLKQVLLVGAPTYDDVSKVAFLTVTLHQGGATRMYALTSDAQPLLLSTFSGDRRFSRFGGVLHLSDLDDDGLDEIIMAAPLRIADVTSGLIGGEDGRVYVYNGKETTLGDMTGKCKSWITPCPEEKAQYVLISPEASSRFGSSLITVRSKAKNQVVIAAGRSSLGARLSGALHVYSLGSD
UniProt Q9HAV0, whole entry, looked up: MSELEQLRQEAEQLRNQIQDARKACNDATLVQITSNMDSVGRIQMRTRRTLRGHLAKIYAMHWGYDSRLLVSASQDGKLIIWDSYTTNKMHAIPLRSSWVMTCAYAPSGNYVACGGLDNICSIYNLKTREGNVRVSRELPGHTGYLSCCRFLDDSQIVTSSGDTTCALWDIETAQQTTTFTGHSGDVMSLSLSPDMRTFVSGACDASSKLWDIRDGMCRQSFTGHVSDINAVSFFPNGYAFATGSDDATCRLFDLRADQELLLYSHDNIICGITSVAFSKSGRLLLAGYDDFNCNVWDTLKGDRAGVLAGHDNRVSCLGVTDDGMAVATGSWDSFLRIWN
UniProt P63092, whole entry, looked up: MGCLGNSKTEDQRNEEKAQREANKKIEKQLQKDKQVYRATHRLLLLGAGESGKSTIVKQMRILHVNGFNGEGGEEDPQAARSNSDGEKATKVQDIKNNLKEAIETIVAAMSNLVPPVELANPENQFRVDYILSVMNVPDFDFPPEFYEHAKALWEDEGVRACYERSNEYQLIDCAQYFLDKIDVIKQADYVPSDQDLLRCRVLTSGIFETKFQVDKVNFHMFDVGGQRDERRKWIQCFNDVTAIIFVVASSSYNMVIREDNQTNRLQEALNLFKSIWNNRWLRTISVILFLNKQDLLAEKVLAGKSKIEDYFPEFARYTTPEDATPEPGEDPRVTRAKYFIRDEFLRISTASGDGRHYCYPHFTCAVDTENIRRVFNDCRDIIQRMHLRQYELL
UniProt Q14956: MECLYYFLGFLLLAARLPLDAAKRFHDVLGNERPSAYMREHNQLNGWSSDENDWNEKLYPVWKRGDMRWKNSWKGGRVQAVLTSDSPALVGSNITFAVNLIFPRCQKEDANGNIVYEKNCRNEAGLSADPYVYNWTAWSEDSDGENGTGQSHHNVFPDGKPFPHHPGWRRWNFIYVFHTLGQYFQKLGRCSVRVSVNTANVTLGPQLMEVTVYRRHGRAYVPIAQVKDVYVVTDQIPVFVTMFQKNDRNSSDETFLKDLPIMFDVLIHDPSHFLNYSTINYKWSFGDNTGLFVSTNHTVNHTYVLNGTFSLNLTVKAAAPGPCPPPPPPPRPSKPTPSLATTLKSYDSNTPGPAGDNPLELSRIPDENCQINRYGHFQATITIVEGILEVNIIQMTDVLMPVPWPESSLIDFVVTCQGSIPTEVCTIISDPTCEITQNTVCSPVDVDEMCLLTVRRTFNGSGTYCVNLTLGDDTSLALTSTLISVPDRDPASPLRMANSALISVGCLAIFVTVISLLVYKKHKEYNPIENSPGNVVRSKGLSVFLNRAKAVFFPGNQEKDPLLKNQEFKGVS

Legend:
Experiment in all cases: log2 fold change, soluble protein after heating vs DMSO (PISA); higher = thermal stabilisation; K562 lysate, 10 uM; active = over 0.2 and 3.5 SD of the protein, either way, in both replicates (recomputed)
[1] = compound: C1=CC=C(C=C1)[C@H](COC2=CC3=C(C=C2)NC(=O)N3)NC(=O)C4=CC=CN(C4=O)CC5=CC(=C(C=C5)F)F
Outline: (§1)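 A 30 min treatment with 10 μM compound was applied to crude K562 extract at 1 mg/mL protein in PBS pH 7.4 with 1 mM MgCl2. Heating for 3 min spanned 48°C-58°C, after which aliquots were pooled, adjusted to 0.5% NP-40 at 4°C and spun at 21,000xg for 90 min. TMTpro 16plex LC-MS/MS of the supernatant, with channel sums equalised, gave values recorded as log-two fold change in thermal stability against solvent controls, from duplicates.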

[2] = compound: CC1=C(SC2=C1C(=N[C@H](C3=NN=C(N32)C)CC(=O)N)C4=CC=C(C=C4)Cl)C
Outline: as §1

[3] = compound: Cc1sc2c(c1C)C(c1ccc(Cl)cc1)=N[C@@H](CC(=O)OC(C)(C)C)c1nnc(C)n1-2
Outline: as §1

[4] = compound: c1ccc([C@@H]2C[C@H]2NC2CCNCC2)cc1
Outline: as §1

Row | Target | log2 fold change [1] | log2 fold change [2] | log2 fold change [3] | log2 fold change [4]
1 | GOLGA8R (UniProt I6L899) | inactive: 0.111 | inactive: 0.095 | inactive: -0.107 | 
2 | GPLD1 (UniProt P80108) |  |  | inactive: 0.209 | 
3 | GNB4 (UniProt Q9HAV0) | inactive: 0.162 | inactive: -0.074 | inactive: 0.031 | inactive: -0.05
4 | GNAS isoform 3 (UniProt P63092) |  |  |  | inactive: 0.011
5 | GPNMB (UniProt Q14956) | inactive: 0.12 | inactive: 0.127 | inactive: -0.482 | inactive: -0.507
